The other results are listed elsewhere or left out.

By UniProt entry, the sequences of proteins in these tests, tags left out. Where a name states a change or a piece, a line headed by the entry shows the natural chain unless it says otherwise.
UniProt Q15800: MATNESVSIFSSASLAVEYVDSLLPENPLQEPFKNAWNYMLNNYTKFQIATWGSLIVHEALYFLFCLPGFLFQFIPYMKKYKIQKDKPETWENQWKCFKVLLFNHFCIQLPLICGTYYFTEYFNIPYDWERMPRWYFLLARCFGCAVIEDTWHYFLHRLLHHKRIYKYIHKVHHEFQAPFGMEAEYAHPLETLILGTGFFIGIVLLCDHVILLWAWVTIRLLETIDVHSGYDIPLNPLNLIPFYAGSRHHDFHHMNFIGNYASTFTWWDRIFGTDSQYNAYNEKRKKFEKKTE
UniProt Q96DH6: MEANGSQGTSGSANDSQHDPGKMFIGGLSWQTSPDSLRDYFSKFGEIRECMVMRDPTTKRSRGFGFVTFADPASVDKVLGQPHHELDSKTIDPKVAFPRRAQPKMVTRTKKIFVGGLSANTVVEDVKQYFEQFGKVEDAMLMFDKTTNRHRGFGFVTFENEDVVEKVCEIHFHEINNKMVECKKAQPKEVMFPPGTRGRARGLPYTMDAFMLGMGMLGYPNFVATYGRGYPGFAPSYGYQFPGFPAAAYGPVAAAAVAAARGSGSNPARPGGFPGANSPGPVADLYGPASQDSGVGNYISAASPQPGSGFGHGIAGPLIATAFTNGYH
UniProt Q96E11: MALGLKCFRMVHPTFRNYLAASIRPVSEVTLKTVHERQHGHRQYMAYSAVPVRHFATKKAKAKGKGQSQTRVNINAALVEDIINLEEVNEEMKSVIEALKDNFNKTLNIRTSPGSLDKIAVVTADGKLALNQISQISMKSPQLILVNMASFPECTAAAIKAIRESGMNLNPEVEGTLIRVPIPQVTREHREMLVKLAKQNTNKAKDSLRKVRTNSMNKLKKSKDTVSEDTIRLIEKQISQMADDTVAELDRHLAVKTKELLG
UniProt Q13330: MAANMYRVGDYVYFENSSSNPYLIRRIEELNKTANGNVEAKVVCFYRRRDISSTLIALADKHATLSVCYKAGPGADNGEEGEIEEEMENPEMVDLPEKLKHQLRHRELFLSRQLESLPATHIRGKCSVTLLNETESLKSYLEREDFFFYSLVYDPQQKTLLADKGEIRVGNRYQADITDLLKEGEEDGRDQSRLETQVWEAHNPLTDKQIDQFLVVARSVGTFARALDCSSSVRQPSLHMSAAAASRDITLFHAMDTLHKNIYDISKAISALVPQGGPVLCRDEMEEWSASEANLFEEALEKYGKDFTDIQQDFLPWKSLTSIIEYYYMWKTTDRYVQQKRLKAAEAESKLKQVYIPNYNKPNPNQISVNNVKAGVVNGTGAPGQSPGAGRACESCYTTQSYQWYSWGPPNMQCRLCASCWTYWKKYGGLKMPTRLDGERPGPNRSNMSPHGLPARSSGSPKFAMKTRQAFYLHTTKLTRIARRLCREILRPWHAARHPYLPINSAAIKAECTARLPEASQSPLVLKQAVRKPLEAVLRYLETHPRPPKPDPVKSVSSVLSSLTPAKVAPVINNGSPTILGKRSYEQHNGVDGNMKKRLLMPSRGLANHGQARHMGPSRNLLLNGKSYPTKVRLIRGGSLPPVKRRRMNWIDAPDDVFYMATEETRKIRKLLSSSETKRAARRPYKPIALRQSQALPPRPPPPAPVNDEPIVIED
UniProt Q9UBK8: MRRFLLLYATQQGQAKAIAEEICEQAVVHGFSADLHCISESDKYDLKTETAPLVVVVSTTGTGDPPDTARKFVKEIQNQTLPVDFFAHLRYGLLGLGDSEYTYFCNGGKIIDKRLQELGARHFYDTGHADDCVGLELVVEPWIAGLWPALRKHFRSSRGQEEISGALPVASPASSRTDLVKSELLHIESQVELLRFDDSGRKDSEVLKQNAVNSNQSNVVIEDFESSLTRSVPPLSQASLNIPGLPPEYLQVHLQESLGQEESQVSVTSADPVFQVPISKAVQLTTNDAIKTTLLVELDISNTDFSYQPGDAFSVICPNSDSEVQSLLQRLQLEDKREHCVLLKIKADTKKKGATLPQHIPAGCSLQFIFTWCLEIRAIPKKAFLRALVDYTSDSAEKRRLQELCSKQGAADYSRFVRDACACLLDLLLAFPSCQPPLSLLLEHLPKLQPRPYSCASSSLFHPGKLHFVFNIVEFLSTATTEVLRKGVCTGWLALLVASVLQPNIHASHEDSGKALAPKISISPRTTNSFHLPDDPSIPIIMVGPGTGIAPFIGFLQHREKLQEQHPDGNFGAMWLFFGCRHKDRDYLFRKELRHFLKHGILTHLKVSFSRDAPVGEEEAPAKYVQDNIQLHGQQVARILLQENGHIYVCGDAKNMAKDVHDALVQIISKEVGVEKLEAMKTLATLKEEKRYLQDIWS
UniProt Q9P0P8: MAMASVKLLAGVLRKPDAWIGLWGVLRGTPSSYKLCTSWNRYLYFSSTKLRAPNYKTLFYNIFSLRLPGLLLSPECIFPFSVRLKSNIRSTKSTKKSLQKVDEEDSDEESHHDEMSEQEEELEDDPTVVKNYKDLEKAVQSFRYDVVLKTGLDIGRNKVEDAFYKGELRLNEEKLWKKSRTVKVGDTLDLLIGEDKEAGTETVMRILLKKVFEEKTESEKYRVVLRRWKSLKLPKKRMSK
MTHFD1, A0A384N5Y3, UniProt A0A384N5Y3, whole entry, looked up: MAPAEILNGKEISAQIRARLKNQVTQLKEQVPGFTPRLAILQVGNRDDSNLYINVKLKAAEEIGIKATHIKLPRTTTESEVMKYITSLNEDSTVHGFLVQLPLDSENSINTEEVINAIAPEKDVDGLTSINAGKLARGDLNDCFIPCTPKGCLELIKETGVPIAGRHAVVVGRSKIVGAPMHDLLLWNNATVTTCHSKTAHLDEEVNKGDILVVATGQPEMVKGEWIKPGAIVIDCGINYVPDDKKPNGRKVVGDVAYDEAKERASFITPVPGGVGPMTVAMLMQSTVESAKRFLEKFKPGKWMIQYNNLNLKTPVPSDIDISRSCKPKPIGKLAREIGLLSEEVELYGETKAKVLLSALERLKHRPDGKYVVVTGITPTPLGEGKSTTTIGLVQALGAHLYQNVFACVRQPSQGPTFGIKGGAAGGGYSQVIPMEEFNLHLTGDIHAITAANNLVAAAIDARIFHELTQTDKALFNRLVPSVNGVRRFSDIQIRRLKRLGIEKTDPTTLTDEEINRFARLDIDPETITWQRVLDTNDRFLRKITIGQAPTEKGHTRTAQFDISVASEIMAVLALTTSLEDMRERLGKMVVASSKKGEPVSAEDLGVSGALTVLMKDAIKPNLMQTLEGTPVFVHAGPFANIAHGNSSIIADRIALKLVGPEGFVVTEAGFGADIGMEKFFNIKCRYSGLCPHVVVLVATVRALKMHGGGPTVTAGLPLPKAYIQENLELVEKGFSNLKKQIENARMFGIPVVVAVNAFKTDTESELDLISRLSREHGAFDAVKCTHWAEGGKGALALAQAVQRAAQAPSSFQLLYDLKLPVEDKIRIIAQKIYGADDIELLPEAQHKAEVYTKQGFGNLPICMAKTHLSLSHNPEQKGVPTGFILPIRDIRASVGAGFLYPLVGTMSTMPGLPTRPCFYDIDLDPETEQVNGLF
UniProt Q13496: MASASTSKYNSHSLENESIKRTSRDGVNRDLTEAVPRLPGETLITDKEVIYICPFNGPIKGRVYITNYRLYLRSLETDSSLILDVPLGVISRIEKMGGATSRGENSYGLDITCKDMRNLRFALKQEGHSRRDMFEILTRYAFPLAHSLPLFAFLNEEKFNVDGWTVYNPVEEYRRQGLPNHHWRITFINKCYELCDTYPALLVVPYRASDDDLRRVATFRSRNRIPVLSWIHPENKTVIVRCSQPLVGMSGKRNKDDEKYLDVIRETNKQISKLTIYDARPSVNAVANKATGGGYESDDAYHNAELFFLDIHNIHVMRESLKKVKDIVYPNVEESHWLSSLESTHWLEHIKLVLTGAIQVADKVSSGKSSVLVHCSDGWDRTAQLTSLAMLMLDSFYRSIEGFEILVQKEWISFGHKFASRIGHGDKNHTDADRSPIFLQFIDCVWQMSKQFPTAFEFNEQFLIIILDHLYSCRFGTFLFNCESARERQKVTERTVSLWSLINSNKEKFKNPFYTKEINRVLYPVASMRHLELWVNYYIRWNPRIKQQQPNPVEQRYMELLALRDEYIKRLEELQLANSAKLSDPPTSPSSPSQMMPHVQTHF
UniProt P03928: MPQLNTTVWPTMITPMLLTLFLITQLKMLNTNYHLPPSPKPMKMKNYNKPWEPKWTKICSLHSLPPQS
UniProt Q2M296: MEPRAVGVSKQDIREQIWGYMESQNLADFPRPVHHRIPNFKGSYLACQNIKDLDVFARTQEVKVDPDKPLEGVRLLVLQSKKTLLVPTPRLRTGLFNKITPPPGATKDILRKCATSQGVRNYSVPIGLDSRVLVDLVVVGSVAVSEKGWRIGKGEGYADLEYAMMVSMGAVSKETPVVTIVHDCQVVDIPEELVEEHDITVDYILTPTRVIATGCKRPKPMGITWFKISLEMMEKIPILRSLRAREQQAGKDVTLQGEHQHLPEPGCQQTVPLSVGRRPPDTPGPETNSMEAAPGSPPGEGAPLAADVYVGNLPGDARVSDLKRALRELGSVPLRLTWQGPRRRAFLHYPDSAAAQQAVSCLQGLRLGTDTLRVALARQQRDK
UniProt Q9UGC7: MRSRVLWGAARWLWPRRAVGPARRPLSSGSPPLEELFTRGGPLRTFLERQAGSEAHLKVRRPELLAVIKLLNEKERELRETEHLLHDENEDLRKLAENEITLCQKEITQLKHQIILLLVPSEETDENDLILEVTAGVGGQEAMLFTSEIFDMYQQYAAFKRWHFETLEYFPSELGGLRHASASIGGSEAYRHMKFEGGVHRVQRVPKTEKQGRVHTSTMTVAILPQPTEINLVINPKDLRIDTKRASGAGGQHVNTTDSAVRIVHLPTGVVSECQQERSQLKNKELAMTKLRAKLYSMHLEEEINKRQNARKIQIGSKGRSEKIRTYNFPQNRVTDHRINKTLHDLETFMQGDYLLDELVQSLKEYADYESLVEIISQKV
UniProt Q9Y3D2: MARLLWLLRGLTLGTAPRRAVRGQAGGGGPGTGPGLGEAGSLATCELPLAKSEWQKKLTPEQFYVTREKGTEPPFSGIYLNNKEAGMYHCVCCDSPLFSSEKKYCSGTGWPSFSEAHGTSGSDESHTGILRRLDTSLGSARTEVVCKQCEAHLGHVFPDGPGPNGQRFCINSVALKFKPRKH
UniProt P13640: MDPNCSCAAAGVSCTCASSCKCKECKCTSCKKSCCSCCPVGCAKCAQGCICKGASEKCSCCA
UniProt P52701: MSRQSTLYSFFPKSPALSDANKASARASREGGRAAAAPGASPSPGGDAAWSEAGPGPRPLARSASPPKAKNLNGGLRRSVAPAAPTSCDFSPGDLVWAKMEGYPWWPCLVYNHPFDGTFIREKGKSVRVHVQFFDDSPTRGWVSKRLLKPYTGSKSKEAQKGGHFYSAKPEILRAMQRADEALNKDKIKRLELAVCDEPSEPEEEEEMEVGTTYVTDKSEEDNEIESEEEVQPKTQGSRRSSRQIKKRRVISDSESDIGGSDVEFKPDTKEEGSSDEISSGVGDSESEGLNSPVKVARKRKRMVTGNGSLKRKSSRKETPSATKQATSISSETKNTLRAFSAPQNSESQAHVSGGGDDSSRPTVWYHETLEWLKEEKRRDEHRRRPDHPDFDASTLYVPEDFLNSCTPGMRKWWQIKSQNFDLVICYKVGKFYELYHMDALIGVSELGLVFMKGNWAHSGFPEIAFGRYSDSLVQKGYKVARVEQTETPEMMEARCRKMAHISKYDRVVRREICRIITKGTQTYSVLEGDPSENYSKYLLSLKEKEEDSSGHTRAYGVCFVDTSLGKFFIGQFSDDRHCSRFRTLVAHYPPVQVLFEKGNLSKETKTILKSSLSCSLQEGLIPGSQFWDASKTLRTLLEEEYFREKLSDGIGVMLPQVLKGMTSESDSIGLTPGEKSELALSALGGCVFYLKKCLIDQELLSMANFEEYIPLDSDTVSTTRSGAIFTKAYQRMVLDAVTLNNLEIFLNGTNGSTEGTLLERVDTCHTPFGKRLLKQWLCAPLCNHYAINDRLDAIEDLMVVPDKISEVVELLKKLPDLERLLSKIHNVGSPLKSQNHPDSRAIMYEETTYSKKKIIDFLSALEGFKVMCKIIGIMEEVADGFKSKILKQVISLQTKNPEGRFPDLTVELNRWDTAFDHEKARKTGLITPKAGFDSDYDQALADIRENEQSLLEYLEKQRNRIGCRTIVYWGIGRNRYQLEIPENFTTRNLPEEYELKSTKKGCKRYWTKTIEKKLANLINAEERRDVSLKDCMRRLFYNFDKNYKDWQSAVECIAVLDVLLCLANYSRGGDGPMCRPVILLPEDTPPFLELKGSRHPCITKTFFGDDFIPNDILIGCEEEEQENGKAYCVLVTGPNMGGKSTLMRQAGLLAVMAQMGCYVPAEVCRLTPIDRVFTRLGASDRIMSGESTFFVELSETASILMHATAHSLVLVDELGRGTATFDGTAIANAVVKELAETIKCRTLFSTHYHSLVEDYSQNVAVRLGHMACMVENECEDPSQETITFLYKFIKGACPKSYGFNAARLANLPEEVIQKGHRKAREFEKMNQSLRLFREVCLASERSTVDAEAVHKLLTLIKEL

Compound in the first test: COc1cc2nc(-c3cc(F)ccc3O)nc(N[C@@H]3CNC[C@H]3C(C)(C)O)c2cc1OC
Description: log2 fold change, soluble protein after heating vs DMSO (PISA); higher = thermal stabilisation; K562 lysate, 10 uM; active = over 0.2 and 3.5 SD of the protein, either way, in both replicates (recomputed). The gist of the method: (§1)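 Quantification was by TMTpro 16plex LC-MS/MS with equalised channel sums, applied to the supernatant after 21,000xg for 90 min. Samples were crude K562 extract at 1 mg/mL protein in PBS pH 7.4 with 1 mM MgCl2, treated with 10 μM compound for 30 min, heated for 3 min across 48°C-58°C, pooled and brought to 0.5% NP-40 at 4°C. Values are log-two fold changes in thermal stability relative to solvent controls, from duplicates.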
For MTCL1 (UniProt Q9Y4B5), the log2 fold change was inactive: -0.017.

On to MRPS23 (UniProt Q9Y3D9), for which the log2 fold change is inactive: -0.037.

Regarding MTMR1 (UniProt Q13613), the log2 fold change was inactive: -0.008.

On to MSMO1 (UniProt Q15800), for which the log2 fold change is inactive: 0.008.

Regarding MSI2 (UniProt Q96DH6), the log2 fold change is inactive: -0.012.

On to MRPS11 (UniProt P82912), for which the log2 fold change is inactive: -0.019.

MTOR (UniProt P42345): the log2 fold change was inactive: 0.

Consider MRPL37 (UniProt Q9BZE1), for which the log2 fold change was inactive: -0.025.

Regarding MRPL38 (UniProt Q96DV4), the log2 fold change was inactive: 0.006.

As to MRPS27 isoform 2 (UniProt Q92552), the log2 fold change was inactive: 0.014.

As for MRRF (UniProt Q96E11), the log2 fold change was inactive: -0.021.

For MRPS6 (UniProt P82932), the log2 fold change was inactive: 0.038.

In the case of MRPL43 isoform 4 (UniProt Q8N983), the log2 fold change was inactive: -0.014.

As for MTA1 (UniProt Q13330), the log2 fold change is inactive: 0.023.

In the case of MTFR1 (UniProt Q15390), the log2 fold change is inactive: -0.096.

For MRPS16 (UniProt Q9Y3D3), the log2 fold change is inactive: -0.042.

Take MTRR isoform 1 (UniProt Q9UBK8): the log2 fold change is inactive: 0.013.

On to MTRES1 (UniProt Q9P0P8), for which the log2 fold change is inactive: -0.049.

MTHFD1, A0A384N5Y3: the log2 fold change was inactive: -0.012.

With MT-ND4 (UniProt P03905), the log2 fold change was inactive: -0.035.

In the case of MTCH2 (UniProt Q9Y6C9), the log2 fold change was inactive: -0.062.

For the target MRPS7 (UniProt Q9Y2R9), the log2 fold change is inactive: 0.029.

As to MTM1 (UniProt Q13496), the log2 fold change is inactive: 0.015.

As to MT-ATP8 (UniProt P03928), the log2 fold change was inactive: -0.078.

On to MRPL55 isoform 2 (UniProt Q7Z7F7), for which the log2 fold change was inactive: -0.057.

Turning to MT-CO1 (UniProt P00395), the log2 fold change is inactive: -0.016.

Turning to MRPS21 (UniProt P82921), the log2 fold change was inactive: -0.251.

Consider MRPL50 (UniProt Q8N5N7), for which the log2 fold change was inactive: 0.022.

As to MTHFSD isoform 3 (UniProt Q2M296), the log2 fold change was inactive: 0.013.

Consider MTRF1L (UniProt Q9UGC7), for which the log2 fold change was inactive: 0.066.

As for MSRB2 (UniProt Q9Y3D2), the log2 fold change is inactive: 0.136.

For the target MRPS14 (UniProt O60783), the log2 fold change was inactive: 0.102.

On to MRPL9 (UniProt Q9BYD2), for which the log2 fold change is inactive: 0.014.

In the case of MRPL35 (UniProt Q9NZE8), the log2 fold change was inactive: -0.072.

Regarding MRPS26 (UniProt Q9BYN8), the log2 fold change was inactive: 0.244.

As to MRPS9 (UniProt P82933), the log2 fold change is inactive: -0.008.

MTA2 (UniProt O94776): the log2 fold change was inactive: -0.005.

With MT1G (UniProt P13640), the log2 fold change was inactive: -0.102.

Consider MSH6 (UniProt P52701), for which the log2 fold change is inactive: -0.011.

Compound in a further test: COc1cc2ncnc(Nc3ccc(F)c(Cl)c3)c2cc1OCCCN1CCOCC1 [gefitinib]
Described as above. The method, boiled down:
as §1
Consider MRPS23 (UniProt Q9Y3D9), for which the log2 fold change was inactive: -0.01.

Take MTMR1 (UniProt Q13613): the log2 fold change was inactive: 0.014.

For MSMO1 (UniProt Q15800), the log2 fold change was inactive: 0.025.

MSI2 (UniProt Q96DH6): the log2 fold change was inactive: -0.031.

For the target MRPS11 (UniProt P82912), the log2 fold change was inactive: -0.016.

In the case of MTOR (UniProt P42345), the log2 fold change was inactive: -0.039.

In the case of MRPL37 (UniProt Q9BZE1), the log2 fold change is inactive: 0.003.

Regarding MRPL38 (UniProt Q96DV4), the log2 fold change was inactive: -0.038.

As for MRPS27 isoform 2 (UniProt Q92552), the log2 fold change is inactive: -0.067.

For MRRF (UniProt Q96E11), the log2 fold change is inactive: 0.026.

With MRPS6 (UniProt P82932), the log2 fold change was inactive: 0.037.

For the target MRPL43 isoform 4 (UniProt Q8N983), the log2 fold change is inactive: -0.03.

For the target MTA1 (UniProt Q13330), the log2 fold change was inactive: -0.023.

Consider MTFR1 (UniProt Q15390), for which the log2 fold change was inactive: -0.009.

On to MRPS16 (UniProt Q9Y3D3), for which the log2 fold change was inactive: -0.008.

MTRR isoform 1 (UniProt Q9UBK8): the log2 fold change is inactive: 0.

MTRES1 (UniProt Q9P0P8): the log2 fold change was inactive: 0.037.

Regarding MTHFD1, A0A384N5Y3, the log2 fold change was inactive: -0.025.

As for MT-ND4 (UniProt P03905), the log2 fold change was inactive: 0.051.

Consider MTCH2 (UniProt Q9Y6C9), for which the log2 fold change is inactive: -0.007.

For MRPS7 (UniProt Q9Y2R9), the log2 fold change was inactive: -0.01.

As for MTM1 (UniProt Q13496), the log2 fold change is inactive: -0.038.

MT-ATP8 (UniProt P03928): the log2 fold change is inactive: -0.081.

On to MRPL55 isoform 2 (UniProt Q7Z7F7), for which the log2 fold change is inactive: 0.084.

Take MT-CO1 (UniProt P00395): the log2 fold change was inactive: -0.097.

With MRPS21 (UniProt P82921), the log2 fold change was inactive: 0.025.

For MRPL50 (UniProt Q8N5N7), the log2 fold change was inactive: -0.218.

With MTHFSD isoform 3 (UniProt Q2M296), the log2 fold change is inactive: -0.091.

Consider MTRF1L (UniProt Q9UGC7), for which the log2 fold change was inactive: 0.006.

Regarding MSRB2 (UniProt Q9Y3D2), the log2 fold change was inactive: 0.021.

Turning to MRPS14 (UniProt O60783), the log2 fold change was inactive: -0.042.

Regarding MRPL9 (UniProt Q9BYD2), the log2 fold change is inactive: 0.008.

Consider MRPL35 (UniProt Q9NZE8), for which the log2 fold change was inactive: 0.009.

As for MRPS26 (UniProt Q9BYN8), the log2 fold change is inactive: 0.031.

MRPS9 (UniProt P82933): the log2 fold change is inactive: 0.026.

In the case of MTA2 (UniProt O94776), the log2 fold change is inactive: -0.02.

For the target MT1G (UniProt P13640), the log2 fold change was inactive: -0.118.

For the target MSH6 (UniProt P52701), the log2 fold change was inactive: -0.023.

These data come from the supplement of paper PMC10849652.
